From article PMC7960226 (Science (New York, N.Y.), 2020)

The chains behind the UniProt entries cited, without tags or fusion partners.
UniProt P35462, whole entry, species assumed: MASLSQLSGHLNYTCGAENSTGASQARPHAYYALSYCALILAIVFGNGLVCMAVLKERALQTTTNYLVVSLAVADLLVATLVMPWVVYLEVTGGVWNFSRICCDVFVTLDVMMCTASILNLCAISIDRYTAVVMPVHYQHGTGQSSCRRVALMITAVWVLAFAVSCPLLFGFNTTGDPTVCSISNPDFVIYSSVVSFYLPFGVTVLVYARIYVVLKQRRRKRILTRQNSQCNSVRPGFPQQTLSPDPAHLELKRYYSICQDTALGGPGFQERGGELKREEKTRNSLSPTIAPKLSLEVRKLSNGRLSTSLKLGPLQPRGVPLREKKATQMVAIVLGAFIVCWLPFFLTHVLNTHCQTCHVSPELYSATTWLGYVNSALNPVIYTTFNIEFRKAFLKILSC

Target: DRD3 (Homo sapiens, UniProt P35462)
Experiment: biochemical

CCCCCCCCCCCCCCCC[n+]1ccccc1 [Cetylpyridinium chloride]
IC50: 550 nM
